Reference: paper PMC5727433
Substitutions are numbered along the chain they refer to. These are yes or no findings as the source states them, for the method shown. In cells and extracts the contact can be indirect. Some results given as binding are weak or reduced against the parent protein; the word gives no strength.

The chains behind the UniProt entries cited, without tags or fusion partners. Where a name states a change or a piece, a line headed by the entry shows the natural chain unless it says otherwise.
UniProt O15105: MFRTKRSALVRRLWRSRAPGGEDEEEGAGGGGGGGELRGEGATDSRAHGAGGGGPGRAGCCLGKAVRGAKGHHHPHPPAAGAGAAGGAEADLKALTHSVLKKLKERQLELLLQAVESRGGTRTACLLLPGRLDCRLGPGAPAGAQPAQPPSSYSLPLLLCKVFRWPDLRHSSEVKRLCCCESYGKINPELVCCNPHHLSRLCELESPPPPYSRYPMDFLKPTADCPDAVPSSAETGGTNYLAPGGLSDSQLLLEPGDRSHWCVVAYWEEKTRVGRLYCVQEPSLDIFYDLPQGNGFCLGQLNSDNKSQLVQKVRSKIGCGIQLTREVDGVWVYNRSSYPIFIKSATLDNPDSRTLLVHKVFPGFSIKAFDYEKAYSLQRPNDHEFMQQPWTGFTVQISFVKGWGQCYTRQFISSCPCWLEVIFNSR
UniProt Q9HAU4: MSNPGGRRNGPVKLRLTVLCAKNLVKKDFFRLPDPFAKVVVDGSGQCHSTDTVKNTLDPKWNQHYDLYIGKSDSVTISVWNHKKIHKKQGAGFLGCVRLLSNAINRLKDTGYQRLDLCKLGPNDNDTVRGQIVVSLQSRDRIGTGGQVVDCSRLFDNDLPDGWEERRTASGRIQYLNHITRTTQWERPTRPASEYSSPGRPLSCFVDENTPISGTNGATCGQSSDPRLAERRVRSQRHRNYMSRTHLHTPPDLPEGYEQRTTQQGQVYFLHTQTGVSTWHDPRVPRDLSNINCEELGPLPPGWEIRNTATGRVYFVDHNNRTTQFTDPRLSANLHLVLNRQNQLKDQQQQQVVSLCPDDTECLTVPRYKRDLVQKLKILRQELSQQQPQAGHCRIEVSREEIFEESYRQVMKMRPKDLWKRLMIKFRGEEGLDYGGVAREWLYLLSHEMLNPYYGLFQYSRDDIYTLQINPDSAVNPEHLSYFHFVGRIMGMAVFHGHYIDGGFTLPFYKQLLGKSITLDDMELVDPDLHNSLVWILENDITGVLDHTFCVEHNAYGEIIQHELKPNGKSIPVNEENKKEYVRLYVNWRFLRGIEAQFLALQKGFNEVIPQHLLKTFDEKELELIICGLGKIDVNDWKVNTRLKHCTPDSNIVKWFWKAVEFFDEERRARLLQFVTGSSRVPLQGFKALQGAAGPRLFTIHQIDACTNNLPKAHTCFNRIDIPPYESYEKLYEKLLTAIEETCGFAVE

How the values were obtained:
[1] = target: T1, OTUD1-CA mutant (experiment of Supplementary Fig. 4b) (UniProt Q5VV17); assay: co-IP; Supplementary Fig. 4b; SMAD7 associated with OTUD1-wt or OTUD1-CA examined for ubiquitination; details not shown
T1 sequence: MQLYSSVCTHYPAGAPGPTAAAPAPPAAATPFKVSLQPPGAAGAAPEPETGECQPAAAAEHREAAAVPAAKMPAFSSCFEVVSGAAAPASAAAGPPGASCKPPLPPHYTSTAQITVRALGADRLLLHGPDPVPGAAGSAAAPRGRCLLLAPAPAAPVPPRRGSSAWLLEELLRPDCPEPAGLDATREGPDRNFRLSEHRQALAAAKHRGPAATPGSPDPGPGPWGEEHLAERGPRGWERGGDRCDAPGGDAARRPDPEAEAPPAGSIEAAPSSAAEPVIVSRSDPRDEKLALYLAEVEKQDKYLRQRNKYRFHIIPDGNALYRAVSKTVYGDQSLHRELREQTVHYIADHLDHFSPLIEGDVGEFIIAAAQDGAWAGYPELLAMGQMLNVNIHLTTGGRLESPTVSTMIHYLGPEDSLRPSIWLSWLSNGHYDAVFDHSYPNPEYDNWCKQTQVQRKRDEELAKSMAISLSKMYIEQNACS

[2] = target: T2, OTUD1-wt (experiment of Supplementary Fig. 4b) (UniProt Q5VV17); assay: as above
T2 sequence: T1 sequence with A320C

Flag-SMAD7 = Flag-SMAD7 (UniProt O15105); assay: co-IP; anti-Flag immunoprecipitates from HEK293T cells transfected with Flag-SMAD7-wt or K220R, with or without depletion of OTUD1; immunoblot for SMURF2
Flag-SMAD7 K220R = Flag-SMAD7 K220R (UniProt O15105); assay: as above

Row | binding [1] | binding [2] | binding (Flag-SMAD7) | binding (Flag-SMAD7 K220R) | Substance
1 | binds | binds |  |  | SMAD7 (experiment of Supplementary Fig. 4b) (from UniProt O15105 1-426)
2 |  |  | binds | binds | SMURF2 (from UniProt Q9HAU4 1-748) (enzyme)
